Laboratory results: article PMC4694903
Results are given in words; binding and its absence hold for the method and conditions named. For part of these data: In cells and extracts the contact can be indirect. Some results given as binding are weak or reduced against the parent protein; the word gives no strength. For part of these data: Sequences can lack the tags named with a protein.

Protein sequences, listed by entry. Tags and fused reporters are not part of them. Lines headed by an entry give the natural chain unless they say otherwise; changes in a name come on top. Chains listed by the source or under a name are the forms on record and can include a tag or linker.
CD44 Ser291Ala mutant fused with the C-terminal half of ubiquitin linked to PLV (P16070, form named): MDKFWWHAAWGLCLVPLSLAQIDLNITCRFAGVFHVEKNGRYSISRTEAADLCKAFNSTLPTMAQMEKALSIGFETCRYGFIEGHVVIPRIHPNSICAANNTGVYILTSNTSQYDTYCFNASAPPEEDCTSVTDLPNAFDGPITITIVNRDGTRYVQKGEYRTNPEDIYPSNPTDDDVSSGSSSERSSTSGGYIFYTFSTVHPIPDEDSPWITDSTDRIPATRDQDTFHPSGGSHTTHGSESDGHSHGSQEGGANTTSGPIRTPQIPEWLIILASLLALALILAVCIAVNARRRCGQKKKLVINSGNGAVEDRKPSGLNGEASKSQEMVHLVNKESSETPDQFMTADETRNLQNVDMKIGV
CD44 Ser291Asp mutant fused with the C-terminal half of ubiquitin linked to PLV (P16070, form named): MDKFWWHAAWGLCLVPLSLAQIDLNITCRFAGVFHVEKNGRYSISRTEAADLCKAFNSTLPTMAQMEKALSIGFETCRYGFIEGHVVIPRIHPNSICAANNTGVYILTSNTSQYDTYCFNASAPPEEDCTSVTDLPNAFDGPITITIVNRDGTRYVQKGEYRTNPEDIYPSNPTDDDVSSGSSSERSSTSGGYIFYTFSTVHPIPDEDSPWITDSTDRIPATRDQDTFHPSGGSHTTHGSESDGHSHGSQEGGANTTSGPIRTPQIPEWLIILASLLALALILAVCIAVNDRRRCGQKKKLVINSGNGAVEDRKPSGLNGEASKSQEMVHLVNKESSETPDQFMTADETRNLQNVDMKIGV
CD44 Ser325 to aspartate mutant fused with the C-terminal half of ubiquitin linked to PLV (P16070, form named): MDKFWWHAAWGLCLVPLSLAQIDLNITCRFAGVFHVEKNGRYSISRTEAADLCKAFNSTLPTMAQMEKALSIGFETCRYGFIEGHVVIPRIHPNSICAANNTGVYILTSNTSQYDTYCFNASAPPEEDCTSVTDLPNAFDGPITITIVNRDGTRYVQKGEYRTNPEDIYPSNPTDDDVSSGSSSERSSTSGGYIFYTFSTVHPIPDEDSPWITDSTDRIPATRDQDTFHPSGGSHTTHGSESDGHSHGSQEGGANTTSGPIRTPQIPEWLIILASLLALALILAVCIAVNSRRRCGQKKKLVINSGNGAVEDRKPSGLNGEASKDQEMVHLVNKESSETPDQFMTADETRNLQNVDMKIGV
CD44 Ser325Ala mutant fused with the C-terminal half of ubiquitin linked to PLV (P16070, form named): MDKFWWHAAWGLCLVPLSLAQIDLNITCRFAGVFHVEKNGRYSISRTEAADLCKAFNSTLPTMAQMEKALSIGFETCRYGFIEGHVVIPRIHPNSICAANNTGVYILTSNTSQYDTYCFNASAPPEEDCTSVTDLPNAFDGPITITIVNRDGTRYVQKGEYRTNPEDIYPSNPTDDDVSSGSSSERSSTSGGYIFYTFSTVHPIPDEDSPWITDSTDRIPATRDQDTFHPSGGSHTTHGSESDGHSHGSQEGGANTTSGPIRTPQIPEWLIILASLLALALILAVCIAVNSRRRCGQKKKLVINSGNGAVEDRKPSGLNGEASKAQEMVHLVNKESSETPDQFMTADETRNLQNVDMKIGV
CD44 standard isoform (CD44s), wild type, fused with the C-terminal half of ubiquitin linked to PLV (P16070, form named): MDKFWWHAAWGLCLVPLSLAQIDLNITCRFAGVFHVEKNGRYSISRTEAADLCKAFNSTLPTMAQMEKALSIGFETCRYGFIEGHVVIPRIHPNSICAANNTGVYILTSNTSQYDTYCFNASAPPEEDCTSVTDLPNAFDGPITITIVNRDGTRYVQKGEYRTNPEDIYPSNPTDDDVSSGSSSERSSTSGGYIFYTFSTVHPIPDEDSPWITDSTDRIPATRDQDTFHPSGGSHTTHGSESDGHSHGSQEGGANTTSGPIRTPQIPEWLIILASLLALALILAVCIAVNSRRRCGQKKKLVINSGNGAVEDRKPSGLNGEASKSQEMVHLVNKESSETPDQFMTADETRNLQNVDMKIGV
UniProt P08183: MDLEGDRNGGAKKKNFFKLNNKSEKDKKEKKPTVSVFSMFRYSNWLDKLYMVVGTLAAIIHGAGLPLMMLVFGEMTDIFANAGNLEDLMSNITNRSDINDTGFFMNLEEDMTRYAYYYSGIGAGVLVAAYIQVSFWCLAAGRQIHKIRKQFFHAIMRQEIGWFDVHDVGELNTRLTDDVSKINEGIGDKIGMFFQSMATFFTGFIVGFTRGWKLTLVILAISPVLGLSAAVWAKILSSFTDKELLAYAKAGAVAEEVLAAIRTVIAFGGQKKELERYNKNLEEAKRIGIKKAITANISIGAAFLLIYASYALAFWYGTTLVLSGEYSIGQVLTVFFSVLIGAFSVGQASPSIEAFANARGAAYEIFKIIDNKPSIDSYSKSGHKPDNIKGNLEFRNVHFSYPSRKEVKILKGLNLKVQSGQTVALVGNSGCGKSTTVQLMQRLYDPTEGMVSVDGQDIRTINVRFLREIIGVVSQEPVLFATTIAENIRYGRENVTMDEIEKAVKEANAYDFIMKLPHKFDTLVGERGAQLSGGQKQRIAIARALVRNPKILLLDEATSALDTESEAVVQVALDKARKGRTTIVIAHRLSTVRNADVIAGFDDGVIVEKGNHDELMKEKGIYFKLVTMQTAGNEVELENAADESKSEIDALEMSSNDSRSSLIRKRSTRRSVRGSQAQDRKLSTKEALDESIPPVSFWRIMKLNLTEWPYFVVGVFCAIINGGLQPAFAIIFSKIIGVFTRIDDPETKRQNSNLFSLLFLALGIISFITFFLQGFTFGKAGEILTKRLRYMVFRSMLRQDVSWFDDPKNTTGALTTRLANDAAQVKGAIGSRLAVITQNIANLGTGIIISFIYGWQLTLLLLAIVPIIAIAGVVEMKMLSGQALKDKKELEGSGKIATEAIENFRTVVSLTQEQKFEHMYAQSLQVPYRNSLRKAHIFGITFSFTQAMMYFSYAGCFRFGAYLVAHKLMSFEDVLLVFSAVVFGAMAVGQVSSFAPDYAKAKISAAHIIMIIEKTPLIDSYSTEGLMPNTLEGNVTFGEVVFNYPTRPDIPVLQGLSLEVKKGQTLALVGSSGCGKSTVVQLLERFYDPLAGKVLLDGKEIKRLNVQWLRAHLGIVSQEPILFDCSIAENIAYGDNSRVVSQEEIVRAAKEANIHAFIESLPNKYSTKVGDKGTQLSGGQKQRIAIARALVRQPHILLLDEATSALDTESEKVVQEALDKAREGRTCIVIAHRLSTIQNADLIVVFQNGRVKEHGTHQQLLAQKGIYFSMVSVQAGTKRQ

How the values were obtained:
[1] = target: CD44 Ser291Ala mutant fused with the C-terminal half of ubiquitin linked to PLV (human) (UniProt P16070); assay: two-hybrid; split ubiquitin yeast two-hybrid (Dual membrane system, Dualsystems Biotech) in S. cerevisiae DSY-1; MDR1 fused with the N-terminal half of ubiquitin, CD44 with the C-terminal half linked to PLV; reporters HIS3 and lacZ; leucine-tryptophan-histidine triple selection plates with 3mM 3-aminotrazole
[2] = target: CD44 Ser291Asp mutant fused with the C-terminal half of ubiquitin linked to PLV (human) (UniProt P16070); assay: as above
[3] = target: CD44 Ser325 to aspartate mutant fused with the C-terminal half of ubiquitin linked to PLV (human) (UniProt P16070); assay: as above
[4] = target: CD44 Ser325Ala mutant fused with the C-terminal half of ubiquitin linked to PLV (human) (UniProt P16070); assay: as above
[5] = target: CD44 standard isoform (CD44s), wild type, fused with the C-terminal half of ubiquitin linked to PLV (human) (UniProt P16070); assay: as above
[6] = target: His-tagged P-glycoprotein (UniProt P08183); assay: co-IP; HEK293T cells transfected with His-tagged P-gp and myc-tagged FBXO21, lysed after 48 hrs; whole cell lysates subjected to reciprocal immunoprecipitation and immunoblotted

Measured: binding

P-glycoprotein (MDR1 gene product) fused with the N-terminal half of ubiquitin (from UniProt P08183 1-1280)
not listed: [6]
binds: all other assays above

B1: Myc-tagged FBXO21 (protein, UniProt O94952 1-628)
chain: MAAAAVDSAMEVVPALAEEAAPEVAGLSCLVNLPGEVLEYILCCGSLTAADIGRVSSTCRRLRELCQSSGKVWKEQFRVRWPSLMKHYSPTDYVNWLEEYKVRQKAGLEARKIVASFSKRFFSEHVPCNGFSDIENLEGPEIFFEDELVCILNMEGRKALTWKYYAKKILYYLRQQKILNNLKAFLQQPDDYESYLEGAVYIDQYCNPLSDISLKDIQAQIDSIVELVCKTLRGINSRHPSLAFKAGESSMIMEIELQSQVLDAMNYVLYDQLKFKGNRMDYYNALNLYMHQVLIRRTGIPISMSLLYLTIARQLGVPLEPVNFPSHFLLRWCQGAEGATLDIFDYIYIDAFGKGKQLTVKECEYLIGQHVTAALYGVVNVKKVLQRMVGNLLSLGKREGIDQSYQLLRDSLDLYLAMYPDQVQLLLLQARLYFHLGIWPEKSFCLVLKVLDILQHIQTLDPGQHGAVGYLVQHTLEHIERKKEEVGVEVKLRSDEKHRDVCYSIGLIMKHKRYGYNCVIYGWDPTCMMGHEWIRNMNVHSLPHGHHQPFYNVLVEDGSCRYAAQENLEYNVEPQEISHPDVGRYFSEFTGTHYIPNAELEIRYPEDLEFVYETVQNIYSAKKENIDE
binds: [6]
